According to paper PMC8448743:

Biological target: Flag-CHIP deletion construct lacking the CC domain (human (cloned from SHSY5Y cDNA))
Experiment: co-IP; HEK293T co-transfected with an HA-tagged and a Flag-tagged protein; whole cell lysate in low-salt lysis buffer (50 mM Hepes pH 7.5, 150 mM NaCl, 1% Triton X-100) on anti-Flag agarose overnight at 4 °C, six washes, immunoblot

B1: HA-TAK1 (protein, UniProt O43318 1-606)
chain: MSTASAASSSSSSSAGEMIEAPSQVLNFEEIDYKEIEVEEVVGRGAFGVVCKAKWRAKDVAIKQIESESERKAFIVELRQLSRVNHPNIVKLYGACLNPVCLVMEYAEGGSLYNVLHGAEPLPYYTAAHAMSWCLQCSQGVAYLHSMQPKALIHRDLKPPNLLLVAGGTVLKICDFGTACDIQTHMTNNKGSAAWMAPEVFEGSNYSEKCDVFSWGIILWEVITRRKPFDEIGGPAFRIMWAVHNGTRPPLIKNLPKPIESLMTRCWSKDPSQRPSMEEIVKIMTHLMRYFPGADEPLQYPCQYSDEGQSNSATSTGSFMDIASTNTSNKSDTNMEQVPATNDTIKRLESKLLKNQAKQQSESGRLSLGASRGSSVESLPPTSEGKRMSADMSEIEARIAATTAYSKPKRGHRKTASFGNILDVPEIVISGNGQPRRRSIQDLTVTGTEPGQVSSRSSSPSVRMITTSGPTSEKPTRSHPWTPDDSTDTNGSDNSIPMAYLTLDHQLQPLAPCPNSKESMAVFEQHCKMAQEYMKVQTEIALLLQRKQELVAELDQDEKDQQNTSRLVQEHKKLLDENKSLSTYYQQCKKQLEVIRSQQQKRQGTS
  binding: no binding

These are yes or no findings as the source states them, for the method shown. Binding seen in cells or lysates may run through a third protein. Tags and fused reporters may be left off the sequences shown.
